The other results are listed elsewhere or left out.
What was measured:
Experiment in all cases: log2 fold change, soluble protein after heating vs DMSO (PISA); higher = thermal stabilisation; K562 lysate, 10 uM; active = over 0.2 and 3.5 SD of the protein, either way, in both replicates (recomputed)
vemurafenib = compound: CCCS(=O)(=O)Nc1ccc(F)c(C(=O)c2c[nH]c3ncc(-c4ccc(Cl)cc4)cc23)c1F [vemurafenib]
In short: (§1)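 Thermal stability, expressed as log-two fold change relative to solvent controls, is given from duplicates. Crude K562 extract in PBS pH 7.4 with 1 mM MgCl2, at 1 mg/mL protein, was treated with 10 μM compound for 30 min and heated in aliquots for 3 min across 48°C-58°C. After pooling, adjustment to 0.5% NP-40 at 4°C and centrifugation at 21,000xg for 90 min, supernatant protein was measured by TMTpro 16plex LC-MS/MS with channel sums equalised.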

By UniProt entry, the sequences of proteins in these tests, tags left out. Where a name states a change or a piece, a line headed by the entry shows the natural chain unless it says otherwise.
UniProt P18859: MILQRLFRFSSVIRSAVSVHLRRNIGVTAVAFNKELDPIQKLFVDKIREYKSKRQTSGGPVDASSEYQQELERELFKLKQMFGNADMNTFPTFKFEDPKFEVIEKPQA
UniProt Q9NWX5: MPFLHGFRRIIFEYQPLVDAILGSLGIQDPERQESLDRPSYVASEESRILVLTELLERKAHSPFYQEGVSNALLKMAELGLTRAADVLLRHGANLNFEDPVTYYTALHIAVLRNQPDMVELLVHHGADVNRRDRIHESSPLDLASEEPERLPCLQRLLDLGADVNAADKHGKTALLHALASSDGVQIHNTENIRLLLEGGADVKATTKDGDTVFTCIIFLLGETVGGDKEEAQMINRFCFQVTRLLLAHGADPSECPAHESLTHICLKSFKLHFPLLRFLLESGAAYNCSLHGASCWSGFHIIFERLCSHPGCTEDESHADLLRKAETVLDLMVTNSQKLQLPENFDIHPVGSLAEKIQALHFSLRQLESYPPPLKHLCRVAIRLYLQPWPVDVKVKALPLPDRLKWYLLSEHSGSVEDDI
UniProt Q9HD20: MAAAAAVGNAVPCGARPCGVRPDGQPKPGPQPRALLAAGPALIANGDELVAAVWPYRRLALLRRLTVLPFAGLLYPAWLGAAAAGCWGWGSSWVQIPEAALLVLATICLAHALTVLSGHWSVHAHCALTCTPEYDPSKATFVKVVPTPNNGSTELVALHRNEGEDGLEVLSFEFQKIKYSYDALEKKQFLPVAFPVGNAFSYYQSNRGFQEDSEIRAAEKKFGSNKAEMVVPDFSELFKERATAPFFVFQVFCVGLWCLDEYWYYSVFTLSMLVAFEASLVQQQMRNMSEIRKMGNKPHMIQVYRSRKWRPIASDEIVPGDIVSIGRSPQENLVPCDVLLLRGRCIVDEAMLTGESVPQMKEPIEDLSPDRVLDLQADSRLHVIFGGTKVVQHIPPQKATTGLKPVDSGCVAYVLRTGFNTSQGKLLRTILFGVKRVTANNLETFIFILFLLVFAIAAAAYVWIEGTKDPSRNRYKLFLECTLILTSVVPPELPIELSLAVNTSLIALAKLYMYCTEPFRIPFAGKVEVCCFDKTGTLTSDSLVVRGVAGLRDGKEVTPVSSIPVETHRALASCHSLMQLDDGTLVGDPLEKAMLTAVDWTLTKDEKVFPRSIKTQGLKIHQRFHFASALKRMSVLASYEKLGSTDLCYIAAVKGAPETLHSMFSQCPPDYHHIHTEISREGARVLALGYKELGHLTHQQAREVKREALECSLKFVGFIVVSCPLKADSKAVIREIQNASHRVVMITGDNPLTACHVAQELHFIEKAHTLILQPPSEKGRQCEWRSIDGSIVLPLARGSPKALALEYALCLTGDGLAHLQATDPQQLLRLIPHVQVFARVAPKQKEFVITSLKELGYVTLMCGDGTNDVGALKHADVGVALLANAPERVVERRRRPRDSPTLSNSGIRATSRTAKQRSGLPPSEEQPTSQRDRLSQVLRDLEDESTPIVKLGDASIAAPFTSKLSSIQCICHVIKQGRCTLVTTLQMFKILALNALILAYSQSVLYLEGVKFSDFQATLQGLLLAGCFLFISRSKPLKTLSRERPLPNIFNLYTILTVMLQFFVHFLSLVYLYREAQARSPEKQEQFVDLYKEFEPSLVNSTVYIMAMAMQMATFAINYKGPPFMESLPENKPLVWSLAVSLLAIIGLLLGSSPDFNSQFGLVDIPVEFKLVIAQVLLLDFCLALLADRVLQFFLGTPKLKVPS
UniProt Q04656: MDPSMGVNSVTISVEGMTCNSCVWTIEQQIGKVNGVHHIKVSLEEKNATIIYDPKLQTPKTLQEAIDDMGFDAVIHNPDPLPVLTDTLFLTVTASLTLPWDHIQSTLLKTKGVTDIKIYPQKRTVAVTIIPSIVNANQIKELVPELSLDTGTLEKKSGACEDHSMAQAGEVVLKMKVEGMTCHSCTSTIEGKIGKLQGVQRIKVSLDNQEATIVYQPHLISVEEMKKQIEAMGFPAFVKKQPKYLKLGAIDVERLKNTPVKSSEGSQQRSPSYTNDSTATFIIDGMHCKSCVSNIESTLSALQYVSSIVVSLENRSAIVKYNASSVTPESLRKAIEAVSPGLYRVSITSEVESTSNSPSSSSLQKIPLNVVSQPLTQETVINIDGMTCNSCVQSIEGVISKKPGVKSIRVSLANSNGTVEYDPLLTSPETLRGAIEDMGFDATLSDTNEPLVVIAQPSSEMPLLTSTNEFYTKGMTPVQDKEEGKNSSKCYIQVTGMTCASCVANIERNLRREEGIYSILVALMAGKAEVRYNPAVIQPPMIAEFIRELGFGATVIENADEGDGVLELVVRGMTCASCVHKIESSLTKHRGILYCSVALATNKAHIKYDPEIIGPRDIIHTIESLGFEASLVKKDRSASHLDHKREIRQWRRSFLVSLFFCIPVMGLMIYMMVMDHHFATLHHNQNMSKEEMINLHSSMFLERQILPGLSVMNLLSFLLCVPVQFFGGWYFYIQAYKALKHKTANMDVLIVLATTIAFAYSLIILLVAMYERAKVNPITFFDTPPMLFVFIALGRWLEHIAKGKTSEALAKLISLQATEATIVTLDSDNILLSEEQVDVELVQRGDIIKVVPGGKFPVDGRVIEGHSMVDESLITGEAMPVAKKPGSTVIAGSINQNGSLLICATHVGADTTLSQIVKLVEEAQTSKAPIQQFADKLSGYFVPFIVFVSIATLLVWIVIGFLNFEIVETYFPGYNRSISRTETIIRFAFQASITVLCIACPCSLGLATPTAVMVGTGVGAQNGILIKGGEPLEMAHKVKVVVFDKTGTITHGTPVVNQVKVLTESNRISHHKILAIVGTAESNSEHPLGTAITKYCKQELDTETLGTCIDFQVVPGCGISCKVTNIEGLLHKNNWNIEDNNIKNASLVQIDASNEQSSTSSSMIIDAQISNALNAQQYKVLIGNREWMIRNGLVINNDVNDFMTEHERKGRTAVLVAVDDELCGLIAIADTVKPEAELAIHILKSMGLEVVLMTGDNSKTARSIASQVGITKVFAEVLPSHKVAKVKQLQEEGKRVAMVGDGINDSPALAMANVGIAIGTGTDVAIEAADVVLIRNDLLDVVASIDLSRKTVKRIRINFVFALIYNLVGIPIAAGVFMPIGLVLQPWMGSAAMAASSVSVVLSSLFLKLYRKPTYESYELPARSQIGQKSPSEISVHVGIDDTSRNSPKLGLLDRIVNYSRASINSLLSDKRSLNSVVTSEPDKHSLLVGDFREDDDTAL
UniProt Q15904, whole entry, looked up: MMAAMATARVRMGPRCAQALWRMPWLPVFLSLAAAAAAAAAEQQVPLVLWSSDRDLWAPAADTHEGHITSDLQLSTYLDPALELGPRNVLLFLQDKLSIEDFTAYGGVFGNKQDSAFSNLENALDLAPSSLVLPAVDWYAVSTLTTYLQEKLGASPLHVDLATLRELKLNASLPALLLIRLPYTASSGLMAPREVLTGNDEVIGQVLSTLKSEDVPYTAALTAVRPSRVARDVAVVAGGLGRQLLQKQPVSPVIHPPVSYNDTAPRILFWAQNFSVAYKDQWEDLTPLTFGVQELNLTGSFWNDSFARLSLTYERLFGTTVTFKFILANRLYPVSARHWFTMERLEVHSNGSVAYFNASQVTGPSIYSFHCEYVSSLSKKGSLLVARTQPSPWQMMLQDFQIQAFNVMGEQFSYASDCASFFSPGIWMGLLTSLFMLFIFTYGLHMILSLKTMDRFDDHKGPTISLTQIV
UniProt Q8N5M1: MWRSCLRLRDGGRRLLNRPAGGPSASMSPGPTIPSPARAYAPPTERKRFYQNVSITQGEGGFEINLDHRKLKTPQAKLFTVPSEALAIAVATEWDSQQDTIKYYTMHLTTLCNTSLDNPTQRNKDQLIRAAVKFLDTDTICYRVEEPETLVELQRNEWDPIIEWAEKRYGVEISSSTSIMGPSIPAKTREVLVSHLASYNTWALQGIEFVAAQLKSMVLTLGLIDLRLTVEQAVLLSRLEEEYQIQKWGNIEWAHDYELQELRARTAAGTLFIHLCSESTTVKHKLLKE
UniProt Q8WXE1: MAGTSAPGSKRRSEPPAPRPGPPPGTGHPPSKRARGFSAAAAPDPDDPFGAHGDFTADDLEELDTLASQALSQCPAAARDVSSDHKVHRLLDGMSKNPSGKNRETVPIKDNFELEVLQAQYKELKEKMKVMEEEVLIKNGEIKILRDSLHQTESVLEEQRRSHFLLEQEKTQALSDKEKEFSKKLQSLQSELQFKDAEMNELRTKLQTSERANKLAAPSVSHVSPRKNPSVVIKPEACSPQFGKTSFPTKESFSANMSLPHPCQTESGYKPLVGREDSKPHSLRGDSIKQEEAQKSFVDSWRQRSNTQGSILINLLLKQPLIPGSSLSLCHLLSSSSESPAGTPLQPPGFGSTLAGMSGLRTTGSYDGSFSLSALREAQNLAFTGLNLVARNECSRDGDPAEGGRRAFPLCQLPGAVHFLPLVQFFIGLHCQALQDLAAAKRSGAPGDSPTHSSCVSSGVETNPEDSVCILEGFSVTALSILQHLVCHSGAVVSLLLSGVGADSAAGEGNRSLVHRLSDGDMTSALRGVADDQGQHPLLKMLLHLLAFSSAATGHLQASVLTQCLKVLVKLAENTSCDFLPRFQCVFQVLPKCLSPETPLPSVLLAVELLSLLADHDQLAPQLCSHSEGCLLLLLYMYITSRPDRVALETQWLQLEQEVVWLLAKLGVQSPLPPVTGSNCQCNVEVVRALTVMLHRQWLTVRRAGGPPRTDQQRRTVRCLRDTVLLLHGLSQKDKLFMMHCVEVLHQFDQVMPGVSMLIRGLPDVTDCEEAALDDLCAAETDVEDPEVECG
UniProt P06576, whole entry, looked up: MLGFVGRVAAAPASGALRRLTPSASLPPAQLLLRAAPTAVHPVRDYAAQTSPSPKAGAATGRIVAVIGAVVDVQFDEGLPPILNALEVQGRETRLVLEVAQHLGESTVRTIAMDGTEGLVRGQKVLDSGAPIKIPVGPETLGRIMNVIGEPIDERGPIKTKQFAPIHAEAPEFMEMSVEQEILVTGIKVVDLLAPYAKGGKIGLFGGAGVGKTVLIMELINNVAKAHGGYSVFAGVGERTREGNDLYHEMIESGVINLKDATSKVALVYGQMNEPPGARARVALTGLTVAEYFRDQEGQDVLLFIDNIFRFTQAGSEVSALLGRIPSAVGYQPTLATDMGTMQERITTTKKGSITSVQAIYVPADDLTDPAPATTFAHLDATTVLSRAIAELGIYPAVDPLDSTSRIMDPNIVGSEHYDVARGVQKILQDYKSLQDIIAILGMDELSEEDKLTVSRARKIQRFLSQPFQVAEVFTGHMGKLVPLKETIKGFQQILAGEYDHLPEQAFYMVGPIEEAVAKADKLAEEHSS
UniProt O43861: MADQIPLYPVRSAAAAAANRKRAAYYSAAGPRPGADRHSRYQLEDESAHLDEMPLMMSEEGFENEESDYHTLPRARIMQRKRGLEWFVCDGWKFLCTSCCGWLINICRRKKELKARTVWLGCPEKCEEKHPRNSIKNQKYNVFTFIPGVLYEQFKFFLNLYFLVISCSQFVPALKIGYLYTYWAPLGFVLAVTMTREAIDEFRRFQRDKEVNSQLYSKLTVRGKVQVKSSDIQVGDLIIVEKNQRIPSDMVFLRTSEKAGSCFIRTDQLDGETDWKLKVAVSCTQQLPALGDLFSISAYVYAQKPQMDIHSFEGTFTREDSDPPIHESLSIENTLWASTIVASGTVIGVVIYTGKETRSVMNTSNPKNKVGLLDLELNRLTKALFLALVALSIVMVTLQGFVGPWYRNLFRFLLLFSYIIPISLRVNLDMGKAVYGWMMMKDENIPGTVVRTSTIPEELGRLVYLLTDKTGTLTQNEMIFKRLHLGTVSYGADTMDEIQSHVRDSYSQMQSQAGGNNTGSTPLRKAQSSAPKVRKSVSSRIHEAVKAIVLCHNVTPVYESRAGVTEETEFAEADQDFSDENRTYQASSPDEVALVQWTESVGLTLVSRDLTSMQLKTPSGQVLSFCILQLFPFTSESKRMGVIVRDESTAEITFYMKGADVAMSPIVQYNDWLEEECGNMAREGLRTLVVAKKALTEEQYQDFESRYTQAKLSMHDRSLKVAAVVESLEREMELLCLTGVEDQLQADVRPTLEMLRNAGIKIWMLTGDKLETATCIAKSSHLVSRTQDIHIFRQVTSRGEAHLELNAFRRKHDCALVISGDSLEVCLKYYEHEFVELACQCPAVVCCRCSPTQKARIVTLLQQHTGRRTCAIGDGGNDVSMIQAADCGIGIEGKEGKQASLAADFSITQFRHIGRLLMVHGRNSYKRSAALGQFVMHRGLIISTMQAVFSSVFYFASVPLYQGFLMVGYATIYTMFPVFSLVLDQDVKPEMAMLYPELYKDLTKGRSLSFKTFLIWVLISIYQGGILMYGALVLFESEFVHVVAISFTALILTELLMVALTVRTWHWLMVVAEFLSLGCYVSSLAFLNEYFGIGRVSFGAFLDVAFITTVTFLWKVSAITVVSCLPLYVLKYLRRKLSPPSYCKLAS

[1] = compound: CCCS(=O)(=O)Nc1ccc(F)c(C(=O)c2c[nH]c3ncc(Cl)cc23)c1F
In short: as §1

barasertib = compound: CCN(CCCOc1ccc2c(Nc3cc(CC(=O)Nc4cccc(F)c4)[nH]n3)ncnc2c1)CCOP(=O)(O)O [barasertib]
In short: as §1

[2] = compound: CC[C@@H]1C(=O)N(C)c2cnc(Nc3ccc(C(=O)NC4CCN(C)CC4)cc3OC)nc2N1C1CCCC1
In short: as §1

volasertib = compound: CC[C@@H]1C(=O)N(C)c2cnc(Nc3ccc(C(=O)N[C@H]4CC[C@H](N5CCN(CC6CC6)CC5)CC4)cc3OC)nc2N1C(C)C [volasertib]
In short: as §1

[3] = compound: CCn1c(C(=O)N(C2CC2)C2CC2)cc2c3c(ncn3C)c(Nc3cc(C)n(C)n3)nc21
In short: as §1

[4] = compound: CCn1cc(-c2ccnc3[nH]c(-c4cccc(CN(C)C)c4)cc23)c(-c2ccc(NC(=O)N(C)C)cc2)n1
In short: as §1

[5] = compound: CN1CCC(CNc2ccc3ncc(-c4cccc(OC(F)(F)F)c4)n3n2)CC1
In short: as §1

saracatinib = compound: CN1CCN(CCOc2cc(OC3CCOCC3)c3c(Nc4c(Cl)ccc5c4OCO5)ncnc3c2)CC1 [saracatinib]
In short: as §1

sotrastaurin = compound: CN1CCN(c2nc(C3=C(c4c[nH]c5ccccc45)C(=O)NC3=O)c3ccccc3n2)CC1 [sotrastaurin]
In short: as §1

alvocidib = compound: CN1CC[C@H](c2c(O)cc(O)c3c(=O)cc(-c4ccccc4Cl)oc23)[C@H](O)C1 [alvocidib]
In short: as §1

Tubastatin A = compound: CN1CCc2c(c3ccccc3n2Cc2ccc(C(=O)NO)cc2)C1 [Tubastatin A]
In short: as §1

[6] = compound: CNC(=O)C1=CC=CC=C1NC2=NC(=NC=C2Cl)NC3=C(C=C(C=C3)N4CCOCC4)OC
In short: as §1

defactinib = compound: CNC(=O)c1ccc(Nc2ncc(C(F)(F)F)c(NCc3nccnc3N(C)S(C)(=O)=O)n2)cc1 [defactinib]
In short: as §1

[7] = compound: CNc1nc(-c2ccc3c(N)n[nH]c3c2)cc(N2C[C@@H](C(=O)NC3CCCCC3)CC[C@H]2C)n1
In short: as §1

encorafenib = compound: COC(=O)N[C@@H](C)CNc1nccc(-c2cn(C(C)C)nc2-c2cc(Cl)cc(NS(C)(=O)=O)c2F)n1 [encorafenib]
In short: as §1

[8] = compound: COC(=O)[C@H](CCSC)NC(=O)C1=C(C=C(C=C1)NC[C@H](CS)N)C2=CC=CC=C2
In short: as §1

alisertib = compound: COc1cc(Nc2ncc3c(n2)-c2ccc(Cl)cc2C(c2c(F)cccc2OC)=NC3)ccc1C(=O)O [alisertib]
In short: as §1

[9] = compound: COc1cc2nc(-c3cc(F)ccc3O)nc(N[C@@H]3CNC[C@H]3C(C)(C)O)c2cc1OC
In short: as §1

gefitinib = compound: COc1cc2ncnc(Nc3ccc(F)c(Cl)c3)c2cc1OCCCN1CCOCC1 [gefitinib]
In short: as §1

Target	log2 fold change (vemurafenib)	log2 fold change [1]	log2 fold change (barasertib)	log2 fold change [2]	log2 fold change (volasertib)	log2 fold change [3]	log2 fold change [4]	log2 fold change [5]	log2 fold change (saracatinib)	log2 fold change (sotrastaurin)	log2 fold change (alvocidib)	log2 fold change (Tubastatin A)	log2 fold change [6]	log2 fold change (defactinib)	log2 fold change [7]	log2 fold change (encorafenib)	log2 fold change [8]	log2 fold change (alisertib)	log2 fold change [9]	log2 fold change (gefitinib)
ATP5PF isoform 2 (UniProt P18859)	inactive: 0.083	inactive: -0.023	inactive: 0.064	inactive: 0.076	inactive: 0.133	inactive: 0.076	active: 0.663	inactive: -0.205	inactive: -0.024	inactive: -0.067	inactive: 0.203	inactive: 0.146	inactive: 0.042	inactive: 0.071	inactive: -0.022	inactive: 0.014	inactive: -0.061	inactive: -0.005	inactive: 0.01	inactive: -0.173
ASB6 (UniProt Q9NWX5)	inactive: -0.249	inactive: -0.039	inactive: 0.109	active: 0.651	inactive: -0.026	inactive: -0.002	inactive: 0.182	inactive: 0.075	inactive: -0.05	inactive: -0.01	inactive: 0.097	inactive: 0.014	inactive: -0.006	inactive: 0.019	inactive: 0.099	inactive: -0.1	inactive: 0.174	inactive: -0.001	inactive: 0.073	inactive: -0.046
ATP11B (UniProt Q9Y2G3)	inactive: 0.011	inactive: -0.016	inactive: 0.014	inactive: 0.014	inactive: 0.03	inactive: 0.029	inactive: -0.189	inactive: 0.081	inactive: 0.016	inactive: 0.017	inactive: -0.093	inactive: 0.018	inactive: 0.015	inactive: -0.018	inactive: 0.009	inactive: 0.025	inactive: -0.029	inactive: -0.006	inactive: 0.005	inactive: 0.035
ATP13A1 (UniProt Q9HD20)	inactive: -0.006	inactive: 0.013	inactive: -0.006	inactive: 0.023	inactive: -0.036	inactive: 0.067	inactive: 0.004	active: -0.343	inactive: 0.012	inactive: -0.012	inactive: 0.051	inactive: 0.036	inactive: -0.012	inactive: 0.028	inactive: -0.002	inactive: -0.008	inactive: -0.067	inactive: 0.055	inactive: 0.03	inactive: 0.011
ATP7A isoform 3 (UniProt Q04656)	inactive: -0.032	inactive: 0.002	inactive: 0.025	inactive: 0.041	inactive: -0.004	inactive: -0.009	inactive: -0.012	inactive: 0.032	inactive: 0.017	inactive: 0.028	inactive: -0.005	inactive: -0.004	inactive: 0.007	inactive: -0.012	inactive: -0.041	inactive: 0.037	inactive: -0.003	inactive: 0.011	inactive: 0.027	inactive: 0.01
ATP6AP1 (UniProt Q15904)	inactive: -0.017	inactive: -0.007	inactive: -0.072	inactive: -0.039	inactive: 0.022	inactive: -0.051	inactive: -0.109	inactive: 0.097	inactive: 0.005	inactive: 0.017	inactive: -0.045	inactive: 0.073	inactive: 0.011	inactive: -0.054	inactive: -0.032	inactive: 0.021	inactive: -0.09	inactive: -0.016	inactive: 0.026	inactive: 0.064
ATXN2 (UniProt Q99700)	inactive: 0.007	inactive: -0.004	inactive: 0.012	inactive: 0.057	inactive: 0.001	inactive: 0.022	inactive: 0.005	inactive: -0.03	inactive: -0.014	inactive: 0.052	inactive: 0.046	inactive: -0.047	inactive: 0.016	inactive: -0.019	inactive: 0.001	inactive: 0.018	inactive: -0.003	inactive: -0.032	inactive: 0.011	inactive: 0.006
ATP6V1C1 (UniProt P21283)	inactive: -0.054	inactive: -0.006	inactive: 0.007	inactive: -0.036	inactive: 0.003	inactive: -0.004	inactive: 0.015	inactive: -0.013	inactive: -0.008	inactive: -0.021	inactive: 0.036	inactive: 0.02	inactive: -0.012	inactive: 0.001	inactive: -0.027	inactive: -0.016	inactive: -0.01	inactive: -0.019	inactive: -0.007	inactive: -0.013
ATPAF2 (UniProt Q8N5M1)	inactive: 0.085	inactive: 0	inactive: -0.038	inactive: 0.082	inactive: 0.044	inactive: -0.053	inactive: -0.233	inactive: 0.077	inactive: 0.001	inactive: 0.035	inactive: -0.12	inactive: 0.029	inactive: 0.011	inactive: 0.022	inactive: 0.126	inactive: -0.038	inactive: -0.037	inactive: -0.029	inactive: 0.032	inactive: -0.093
ATP5MF-PTCD1 (UniProt G3V325)	inactive: -0.003	inactive: 0.01	inactive: -0.054	inactive: -0.051	inactive: -0.027	inactive: 0.06	inactive: -0.077	inactive: 0.024	inactive: -0.038	inactive: 0.023	inactive: -0.056	inactive: -0.008	inactive: -0.025	inactive: 0.047	inactive: -0.039	inactive: 0	inactive: 0.014	inactive: -0.042	inactive: 0.011	inactive: -0.02
ATRIP (UniProt Q8WXE1)	inactive: 0.174	inactive: 0.002	inactive: -0.036	active: -0.281	inactive: -0.06	inactive: -0.013	inactive: 0.031	inactive: -0.001	inactive: 0.048	inactive: 0.002	inactive: 0.012	inactive: -0.105	inactive: -0.074	inactive: -0.114	inactive: -0.141	inactive: 0.068	inactive: -0.061	inactive: 0.016	inactive: 0.03	inactive: 0.026
ATG13 isoform 2 (UniProt O75143)	inactive: -0.05	inactive: 0.042	inactive: 0.024	inactive: 0.036	inactive: 0.007	inactive: 0.015	active: -0.281	inactive: 0.077	inactive: 0.005	inactive: 0.053	inactive: -0.106	inactive: -0.035	inactive: 0.013	inactive: 0.03	inactive: 0.026	inactive: 0.054	inactive: -0.045	inactive: 0.038	inactive: 0.017	inactive: -0.013
ATP5F1B (UniProt P06576)	inactive: 0.013	inactive: 0.005	inactive: -0.009	inactive: 0.018	inactive: 0.023	inactive: -0.027	inactive: -0.022	inactive: 0.036	inactive: 0.001	inactive: -0.001	inactive: 0.01	inactive: 0.052	inactive: 0.001	inactive: 0.002	inactive: 0.027	inactive: 0.012	inactive: -0.049	inactive: 0.008	inactive: 0.013	inactive: 0.013
ATP6AP2 (UniProt O75787)	inactive: 0.041	inactive: -0.043	inactive: 0.025	inactive: 0.056	inactive: -0.095	inactive: 0.033	inactive: 0.023	inactive: -0.061	inactive: 0.051	inactive: 0.007	inactive: 0.079	inactive: -0.034	inactive: 0.022	inactive: 0.099	inactive: 0.003	inactive: 0.044	inactive: 0.015	inactive: -0.009	inactive: -0.031	inactive: -0.02
ATP9B (UniProt O43861)	inactive: -0.046	inactive: 0.02	inactive: -0.024	inactive: -0.081	inactive: -0.051	inactive: -0.015	inactive: -0.07	inactive: 0.189	inactive: 0.046	inactive: -0.071	inactive: -0.076	inactive: 0.048	inactive: 0.044	inactive: -0.117	inactive: -0.018	inactive: 0.068	inactive: 0.012	inactive: -0.081	inactive: 0.16	inactive: -0.015
ATF2 (UniProt P15336)	inactive: 0.078	inactive: -0.028	inactive: -0.102	inactive: 0.07	inactive: 0.033	inactive: -0.014	inactive: 0.107	inactive: -0.083	inactive: 0.026	inactive: 0.015	inactive: 0.038	inactive: -0.006	inactive: 0.003	inactive: -0.015	inactive: 0.075	inactive: 0.049	inactive: 0.021	inactive: -0.044	inactive: 0.046	inactive: -0.218

Some of the entries so far, in markdown.

| Target | log2 fold change (vemurafenib) | log2 fold change [1] | log2 fold change (barasertib) | log2 fold change [2] | log2 fold change (volasertib) | log2 fold change [3] | log2 fold change [4] | log2 fold change [5] | log2 fold change (saracatinib) | log2 fold change (sotrastaurin) | log2 fold change (alvocidib) | log2 fold change (Tubastatin A) | log2 fold change [6] | log2 fold change (defactinib) | log2 fold change [7] | log2 fold change (encorafenib) | log2 fold change [8] | log2 fold change (alisertib) | log2 fold change [9] | log2 fold change (gefitinib) |
| --- | --- | --- | --- | --- | --- | --- | --- | --- | --- | --- | --- | --- | --- | --- | --- | --- | --- | --- | --- | --- |
| ATP6AP1 (UniProt Q15904) | inactive: -0.017 | inactive: -0.007 | inactive: -0.072 | inactive: -0.039 | inactive: 0.022 | inactive: -0.051 | inactive: -0.109 | inactive: 0.097 | inactive: 0.005 | inactive: 0.017 | inactive: -0.045 | inactive: 0.073 | inactive: 0.011 | inactive: -0.054 | inactive: -0.032 | inactive: 0.021 | inactive: -0.09 | inactive: -0.016 | inactive: 0.026 | inactive: 0.064 |
| ATXN2 (UniProt Q99700) | inactive: 0.007 | inactive: -0.004 | inactive: 0.012 | inactive: 0.057 | inactive: 0.001 | inactive: 0.022 | inactive: 0.005 | inactive: -0.03 | inactive: -0.014 | inactive: 0.052 | inactive: 0.046 | inactive: -0.047 | inactive: 0.016 | inactive: -0.019 | inactive: 0.001 | inactive: 0.018 | inactive: -0.003 | inactive: -0.032 | inactive: 0.011 | inactive: 0.006 |
| ATP6V1C1 (UniProt P21283) | inactive: -0.054 | inactive: -0.006 | inactive: 0.007 | inactive: -0.036 | inactive: 0.003 | inactive: -0.004 | inactive: 0.015 | inactive: -0.013 | inactive: -0.008 | inactive: -0.021 | inactive: 0.036 | inactive: 0.02 | inactive: -0.012 | inactive: 0.001 | inactive: -0.027 | inactive: -0.016 | inactive: -0.01 | inactive: -0.019 | inactive: -0.007 | inactive: -0.013 |
| ATPAF2 (UniProt Q8N5M1) | inactive: 0.085 | inactive: 0 | inactive: -0.038 | inactive: 0.082 | inactive: 0.044 | inactive: -0.053 | inactive: -0.233 | inactive: 0.077 | inactive: 0.001 | inactive: 0.035 | inactive: -0.12 | inactive: 0.029 | inactive: 0.011 | inactive: 0.022 | inactive: 0.126 | inactive: -0.038 | inactive: -0.037 | inactive: -0.029 | inactive: 0.032 | inactive: -0.093 |
